Measured values from PubChem BioAssay AID1487 (National Center for Advancing Translational Sciences (NCATS), 2009).
Values joined by “and” are separate entries in the source; they are usually repeats but may differ in a detail not shown here. Equal values may be shown once. Some of the results follow. The main result of the screen is listed elsewhere. These columns were measured beside it and carry no call. Most of these compounds were active or inconclusive in the main read-out, so they are no random draw. Potencies come from curve fits of mixed quality, noted in brackets.

Experiment: qHTS Assay for Modulators of Lamin A Splicing
Conditions: HeLa LMNA splicing GFP/RFP minigene ratio, 48 h
Procedure, shortened: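 Read-out is the ratio of GFP to DsRed2 object intensity, acquired by 488 nm laser-scanning cytometry on HeLa lamin A-EGFP minigene reporter cells. Compound incubation 48 hrs at 37 °C in Opti-MEM with 2% FBS; DMSO 0.5% final.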

[1] = measured here: RFP viability control channel
[2] = measured here: GFP splicing reporter channel

Row | SMILES | AC50 [1] | AC50 [2]
1 | Cc1nc2ccccn2c1/C(O)=C1\C(=O)C(=O)N(CCN(C)C)C1c1cccnc1 (stereo not drawn) | 1.12 µM [rising, full curve, poor fit] | –
2 | Cc1ccc(C)c(NC(=O)Cn2nnc(C(=O)NCc3ccccc3Cl)c2N)c1 | 35.5 µM [falling, single point] | –
3 | CC1CN(S(=O)(=O)c2ccc(C(=O)Nc3nnc(-c4ccc5c(c4)CCCC5)o3)cc2)CC(C)O1 (stereo not drawn) | 4.47 µM [rising, partial curve] | –
4 | O=C(Cn1c(=O)nc(-c2ccccc2)c2ccccc21)NCCc1ccc(Cl)cc1 | – | 7.08 µM [falling, partial curve, poor fit]
5 | CC1(C)C=Cc2c(c3c(c4c(=O)c(-c5ccc(O)cc5)coc24)OC(C)(C)CC3)O1 | 28.2 µM [falling, single point] | 35.5 µM [falling, single point]
6 | COc1cccc(N2C(=O)C(CC(=O)Nc3ccccc3)N(C3CCCCC3)C2=O)c1 (stereo not drawn) | – | 0.398 µM [rising, full curve, poor fit]
7 | Brc1ccc(-c2csc(/N=C/N3CCOCC3)n2)cc1 | 15.8 µM [rising, single point] | –
8 | Cc1ccc(S(=O)(=O)Nc2cc(=O)[nH]c(SCc3ccccc3Cl)n2)cc1 | 35.5 µM [rising, single point] | 31.6 µM [rising, single point]
9 | CC(C)(C)n1nnnc1C(c1ccccn1)N(Cc1ccccc1)Cc1ccc(Cl)cc1 (stereo not drawn) | 31.6 µM [rising, single point] | –
10 | CSc1ccccc1NC(=O)Nc1ccc(Cl)cc1 | 20 µM [rising, single point] | 25.1 µM [rising, single point]
11 | CN(Cc1ccccc1)S(=O)(=O)c1ccc(Cl)c(C(=O)NCCc2ccccn2)c1 | 0.0178 µM [falling, full curve, poor fit] | 25.1 µM [falling, single point]
12 | CCCCN(CC)CCNC(=O)CCn1cnc2onc(-c3ccc(F)cc3)c2c1=O | 2.24 µM [falling, full curve, poor fit] | 6.31 µM [falling, partial curve, poor fit]
13 | Cc1cccc(-n2cc(-c3ccccc3)c3c(N4CCC(C)CC4)ncnc32)c1 | 35.5 µM [rising, single point] | –
14 | Cc1c(Br)c([N+](=O)[O-])nn1CC(=O)N(C)Cc1ccccc1 | 0.0708 µM [falling, full curve, poor fit] | –
15 | O=C(O)CCc1nc(-c2ccccc2)c(-c2ccccc2)o1 | 0.355 µM [falling, single point] | 316 nM [falling, full curve, poor fit] and 3.98 nM [rising, full curve, poor fit]
16 | O=C(CN(CCO)c1ccccc1)Nc1ccc(Cl)c(S(=O)(=O)N2CCOCC2)c1 | 10 µM [rising, partial curve] | –
17 | COc1ccc(C)cc1NC(=O)c1nnn(Cc2cccc(F)c2)c1N | 0.0178 µM [rising, full curve, poor fit] | 0.112 µM [rising, partial curve]

Row | SMILES | AC50 [1] | AC50 [2]
18 | Cc1ccc(N(Cc2ccc([N+](=O)[O-])cc2)C(=O)c2ccco2)cc1C | 12.6 µM [rising, partial curve] | 12.6 µM [rising, partial curve]
19 | Oc1ccc(C=Nc2ccc3ncccc3c2)c(O)c1 | 35.5 µM [falling, partial curve, poor fit] | 35.5 µM [falling, single point]
20 | NC(=O)CSc1nc2cc([N+](=O)[O-])ccc2n1-c1cccc(C(F)(F)F)c1 | 2 µM [rising, single point] | –
21 | Cc1cc(C)cc(N2CCN(C(=O)N3CCOCC3)CC2)c1 | 14.1 µM [falling, single point] | 35.5 µM [falling, single point]
22 | Cc1c([C@@H]2C[C@H]3CN(Cc4cccc(Cl)c4)C(=O)[C@]34CCCN24)cnn1C | 20 µM [rising, single point] | 22.4 µM [rising, single point]
23 | O=c1c2ccccc2cnn1-c1ccc(Br)cc1 | 0.01 µM [rising, full curve, poor fit] | –
24 | COc1ccccc1NC(=O)C(C)Sc1nnc2ccc3ccccc3n12 (stereo not drawn) | 0.00447 µM [falling, full curve, poor fit] | 6.31 µM [falling, partial curve, poor fit]
25 | Cc1ccc(CNC(=O)CN2C(=O)CCn3nc(-c4ccccc4)cc32)cc1 | 0.0112 µM [falling, full curve, poor fit] | –
26 | Cc1ccc(-n2ncc(C(=O)NCc3cccs3)c2C2CCN(C(=O)OC(C)(C)C)CC2)cc1 | 12.6 µM [rising, single point] | –
27 | OCCN(CCO)c1ccc(C(c2ccccc2Cl)c2ccc(N(CCO)CCO)cc2Cl)c(Cl)c1 | – | 31.6 µM [falling, single point]
28 | CC(C)N=C(N)/N=C(\N)Nc1ccc(Cl)cc1 | 2 µM [falling, full curve, poor fit] | 1 µM [falling, partial curve, poor fit]
29 | C=CCCCCCCCCc1nc(=S)[nH][nH]1 | 31.6 µM [rising, single point] | 11.2 µM [rising, partial curve]
30 | CCCCOc1ccc(C(=O)NCCc2csc(-c3cccc(F)c3)n2)cc1 | – | 0.282 µM [falling, full curve, poor fit]
31 | COc1ccccc1NC(=O)CSc1nc2ccccc2n1C(C)=O | 35.5 µM [rising, single point] | 15.8 µM [rising, single point]
32 | Cc1nnc(NC(=O)CSc2n[nH]c(-c3ccccc3)n2)s1 | – | 0.00891 µM [rising, full curve, poor fit]
33 | COc1cc(/C=N/NC(=O)/C(=C\c2ccc3c(c2)OCO3)NC(=O)c2ccccc2)ccc1O | 0.316 µM [rising, full curve, poor fit] | –

From compound 28 as far as 29, as listed above:
Row | SMILES | AC50 [1] | AC50 [2]
28 | CC(C)N=C(N)/N=C(\N)Nc1ccc(Cl)cc1 | 2 µM [falling, full curve, poor fit] | 1 µM [falling, partial curve, poor fit]
29 | C=CCCCCCCCCc1nc(=S)[nH][nH]1 | 31.6 µM [rising, single point] | 11.2 µM [rising, partial curve]
